Results taken from PubChem BioAssay AID330 (DTP/NCI, 2004).
The list shows only some results of the screen, not a fair sample: it gathers tests that were run many times, whatever their T/C, doses with no T/C, and many T/C values between a quarter and a half above the control. Further doses and runs are listed elsewhere. T/C gives the treated animals as a percentage of the vehicle group. Some entries give survivors of the animals treated and no T/C: the source files T/C as zero there, which appears to mark a toxic dose or a test without result, not a measured value. Some survivor counts are full or nearly so, which does not show that the dose was tolerated: the source hardly ever lists a survival T/C far under the control, and the zero likely stands for such cases as well. Survivors were counted at the toxicity check, usually on the fifth day, unless a day is given; later deaths do not show. Schedules are NCI's codes, read here as Q, the interval in days (D) or hours (H), X, the number of doses. Some structures stand for samples that the source files as different forms (salt, stereo form or complex); doses refer to the form tested. Some entries hold several experiments; their values stand side by side, smallest first. For survival time, the PubChem record calls one and a half times the control and up active, and a quarter to a half above the control has no call in these data; cut-offs in other NCI protocols can differ. Some T/C values are followed by the survivors on the day toxicity was checked, most often the fifth; without a count, all were alive then. Signs of the kind (2×) count equal records among those shown.

Tested on: P388 leukemia ip, CD2F1 mice, survival T/C
Experiment: NCI In Vivo Anticancer Drug Screen. Data for tumor model P388 Leukemia (intraperitoneal) in CD2F1 (CDF1) mice
Conditions: T/C endpoint: median survival time, higher T/C = longer survival
[1] = dose: 25.0 mg/kg/injection, schedule: Q01DX009 (ip), vehicle: saline with Tween-80
[2] = dose: 50.0 mg/kg/injection, schedule: Q01DX009 (ip), vehicle: saline with Tween-80
[3] = dose: 100.0 mg/kg/injection, schedule: Q01DX009 (ip), vehicle: saline with Tween-80
[4] = dose: 200.0 mg/kg/injection, schedule: Q01DX009 (ip), vehicle: saline with Tween-80
[5] = dose: 50.0 mg/kg/injection, schedule: Q01DX005 (ip), vehicle: Klucel (hydroxypropylcellulose) (HPC)
[6] = dose: 100.0 mg/kg/injection, schedule: Q01DX005 (ip), vehicle: Klucel (hydroxypropylcellulose) (HPC)
[7] = dose: 200.0 mg/kg/injection, schedule: Q01DX005 (ip), vehicle: Klucel (hydroxypropylcellulose) (HPC)
[8] = dose: 100.0 mg/kg/injection, schedule: Q01DX009 (ip), vehicle: saline
[9] = dose: 50.0 mg/kg/injection, schedule: Q01DX009 (ip), vehicle: saline
[10] = dose: 200.0 mg/kg/injection, schedule: Q01DX009 (ip), vehicle: saline

CC(=O)NCC(C)c1ccccc1 (stereo not given)
survivor count [1]: 6 of 6
T/C [2]: 94, 101 (2×), 105 % of control
T/C [3]: 99, 100, 105, 141 % of control
T/C [4]: 87, 99, 105, 107 % of control

CCCCCCCCCCNCCSSc1ccccc1
survivor count [5]: 5 of 5
survivor count [6]: 3 of 5
survivor count [7]: 0 of 5

O=C(O)C12CC3CC(CC(C3)C1)C2.O=C(O)C12CC3CC(CC(C3)C1)C2.O=C(O)C12CC3CC(CC(C3)C1)C2.O=C(O)C12CC3CC(CC(C3)C1)C2.[Rh].[Rh]
survivor count [8]: 6 of 6

C=C(C)/C([O-])=N/[N+](C)(C)CC(O)CCCCCCCCCCCC (stereo not given)
survivor count (dose: 5.0 mg/kg/injection, schedule: Q01DX009 (ip), vehicle: Klucel (hydroxypropylcellulose) (HPC)): 6 of 6

CCCCCCCCCCCCCCCCCCN(C)C
survivor count (dose: 100.0 mg/kg/injection, schedule: Q01DX009 (ip), vehicle: Klucel (hydroxypropylcellulose) (HPC)): 1 of 6

CC1OC1C(=O)Sc1ccccc1 (stereo not given)
survivor count [8]: 0 of 6

CCC1(CC)c2c(ccc(OC)c2OC)C=C2c3cc4c(cc3CCN21)OCO4
T/C (dose: 5.0 mg/kg/injection, schedule: Q01DX009 (ip), vehicle: distilled water + Tween-80): 132 % of control
survivor count (dose: 5.0 mg/kg/injection, schedule: Q01DX009 (ip), vehicle: water): 3 of 3
T/C (dose: 10.0 mg/kg/injection, schedule: Q01DX009 (ip), vehicle: distilled water + Tween-80): 134 % of control
survivor count (dose: 10.0 mg/kg/injection, schedule: Q01DX009 (ip), vehicle: water): 0 of 3
survivor count (dose: 20.0 mg/kg/injection, schedule: Q01DX009 (ip), vehicle: distilled water + Tween-80): 0 of 6
survivor count (dose: 20.0 mg/kg/injection, schedule: Q01DX009 (ip), vehicle: water): 0 of 3

C[N+]12CCCCC1CC2 (stereo not given)
survivor count [9]: 0 of 6
survivor count [8]: 0 of 6
survivor count [10]: 0 of 6

CC(=O)c1cccc(NC2C(N)C(NC(=O)N(C)C)(C(C)O)C(C)(O)C2(O)COC(=O)c2c(C)cccc2O)c1 (stereo not given)
T/C (dose: 0.25 mg/kg/injection, schedule: Q01DX009 (ip), vehicle: other): 134 % of control
T/C (dose: 0.37 mg/kg/injection, schedule: Q01DX009 (ip), vehicle: acid diluted with saline): 145 % of control
T/C (dose: 0.75 mg/kg/injection, schedule: Q01DX009 (ip), vehicle: acid diluted with saline): 131 % of control
survivor count (dose: 2.0 mg/kg/injection, schedule: Q01DX009 (ip), vehicle: other): 5 of 6
survivor count (dose: 3.0 mg/kg/injection, schedule: Q01DX009 (ip), vehicle: acid diluted with saline): 5 of 6
survivor count (dose: 4.0 mg/kg/injection, schedule: Q01DX009 (ip), vehicle: other): 3 of 6

NCCNC(c1ccccc1)C(O)c1ccccc1 (stereo not given)
survivor count (dose: 200.0 mg/kg/injection, schedule: Q04DX002 (ip), vehicle: Klucel (hydroxypropylcellulose) (HPC)): 4 of 6

COc1ccc(/C=C/C(=O)C(CN(C)C)CN(C)C)cc1OC
survivor count (dose: 6.25 mg/kg/injection, schedule: Q01DX005 (ip), vehicle: Klucel (hydroxypropylcellulose) (HPC)): 2 of 6
survivor count (dose: 12.5 mg/kg/injection, schedule: Q01DX005 (ip), vehicle: Klucel (hydroxypropylcellulose) (HPC)): 0 of 6
survivor count (dose: 25.0 mg/kg/injection, schedule: Q01DX005 (ip), vehicle: Klucel (hydroxypropylcellulose) (HPC)): 0 of 6
survivor count [5]: 0 of 6
survivor count [6]: 0 of 6
survivor count [7]: 0 of 6

O=S(=O)(c1ccccc1)N(Cl)Cl
T/C [1]: 91, 99, 102, 123 % of control
survivor count [2]: 4 of 6
survivor count [3]: 3 of 6
survivor count [4]: 0 of 6

Cc1cnc(N)c(S(=O)(=O)O)c1
survivor count [8]: 6 of 6
survivor count [10]: 5 of 6

CCOC(=O)C12CC(COc3ccc([N+](=O)[O-])cc3)ON1OC(COc1ccc([N+](=O)[O-])cc1)C2 (stereo not given)
survivor count (dose: 120.0 mg/kg/injection, schedule: Q01DX005 (ip), vehicle: saline with Tween-80): 6 of 6
survivor count (dose: 240.0 mg/kg/injection, schedule: Q01DX005 (ip), vehicle: saline with Tween-80): 6 of 6

c1ccc2c(c1)[nH]c1ccncc12
survivor count [3]: 3 of 6

CCCCCCCCCCCCCCCCS(=O)(=O)c1ccc(S(=O)(=O)N/N=c2/sc3ccccc3n2C)cc1C(=O)O
survivor count [9]: 5 of 6
survivor count [10]: 3 of 6

CN(C)C1CCC(NC2=CC(=O)C=CC2=O)CC1 (stereo not given)
survivor count (dose: 6.25 mg/kg/injection, schedule: Q01DX005 (ip), vehicle: saline): 1 of 5
survivor count (dose: 12.5 mg/kg/injection, schedule: Q01DX005 (ip), vehicle: saline): 0 of 5
survivor count (dose: 25.0 mg/kg/injection, schedule: Q01DX005 (ip), vehicle: saline): 0 of 5
survivor count (dose: 50.0 mg/kg/injection, schedule: Q01DX005 (ip), vehicle: saline): 0 of 5
survivor count (dose: 100.0 mg/kg/injection, schedule: Q01DX005 (ip), vehicle: saline): 0 of 5
survivor count (dose: 200.0 mg/kg/injection, schedule: Q01DX005 (ip), vehicle: saline): 0 of 5

Cc1ccc(S(=O)(=O)N=S(C)(=O)CCCl)cc1 (stereo not given)
survivor count (dose: 200.0 mg/kg/injection, schedule: Q04DX003 (ip), vehicle: suspension in saline): 1 of 6
survivor count (dose: 400.0 mg/kg/injection, schedule: Q04DX003 (ip), vehicle: suspension in saline): 0 of 6

Oc1ccc(O)c2nc3ccccc3nc12
survivor count (dose: 12.5 mg/kg/injection, schedule: Q01DX009 (ip), vehicle: distilled water + Tween-80): 5 of 6
survivor count (dose: 25.0 mg/kg/injection, schedule: Q01DX009 (ip), vehicle: distilled water + Tween-80): 0 of 6
survivor count (dose: 50.0 mg/kg/injection, schedule: Q01DX009 (ip), vehicle: distilled water + Tween-80): 0 of 6
survivor count (dose: 100.0 mg/kg/injection, schedule: Q01DX009 (ip), vehicle: distilled water + Tween-80): 0 of 6

CC(/C=N\Nc1ccc(Cl)cc1)=N/NC(N)=S
survivor count (dose: 400.0 mg/kg/injection, schedule: Q04DX002 (ip), vehicle: saline): 0 of 6

CC1(C)N=C(N)N=C(N)N1c1ccc(C(N)=O)cc1
survivor count [7]: 0 of 6

O=NNc1ccc([N+](=O)[O-])cc1
T/C (dose: 12.5 mg/kg/injection, schedule: Q01DX009 (ip), vehicle: water): 125 and 139 % of control [5 of 6 alive]
T/C (dose: 25.0 mg/kg/injection, schedule: Q01DX009 (ip), vehicle: water): 130 % of control
T/C (dose: 50.0 mg/kg/injection, schedule: Q01DX009 (ip), vehicle: water): 147 % of control
survivor count (dose: 100.0 mg/kg/injection, schedule: Q01DX009 (ip), vehicle: water): 2 of 6
survivor count (dose: 200.0 mg/kg/injection, schedule: Q01DX009 (ip), vehicle: water): 0 of 6

CCCCN(C)/N=N/c1[nH]ncc1C(=O)OCC
survivor count (dose: 400.0 mg/kg/injection, schedule: Q01DX009 (ip), vehicle: other): 6 of 6

CC(=O)O/N=C/c1ccccn1
survivor count (dose: 400.0 mg/kg/injection, schedule: Q04DX003 (ip), vehicle: saline): 2 of 6 and 3 of 6
